Measurements published in US20190241651A1.
These are yes or no findings as the source states them, for the method shown. Some entries that bind do so weakly or less than the wild type.

Amino acid sequences for entries named in this document (tags omitted). Residues count along the entry.
UniProt P01225, residues 19-129: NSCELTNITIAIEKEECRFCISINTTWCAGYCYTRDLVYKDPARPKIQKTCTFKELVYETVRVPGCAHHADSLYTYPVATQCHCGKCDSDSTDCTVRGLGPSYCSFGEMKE

Target: human FSHβ (human) (UniProt P01225)
Experiment: ELISA

B1: monoclonal anti-FSH antibody Hf2 (antibody, V domains shown)
VH: DVHLQESGPGLVKPSQSLSLTCTVTGFSITSDYAWNWIRQFPGNKLEWMGSIFSSGSINYNPSLKSRISITRDTSRNQFFLQLNSVTTADAGTYYCARGGTGTDYWGQGTTLTVSS
VL: DIQMTQTTSSLSASLGDRVTISCRASQDISNYLSWYQQKPDGTIKLLIYYTSRLHSGVSSRFSGSGSGTDYSLTISNLEQEDFATYFCQQGHTLPPTFGGGTKLEIK
  binding: binds
